{
  "source": "PubChem BioAssay AID504834",
  "about": "(National Center for Advancing Translational Sciences (NCATS), 2011)",
  "note": "The whole screen tested about 320,000 compounds, of which about 22,000 (6.9%) were called active. The shares of active, inactive and inconclusive entries below differ from those in the screen. The call rests on the fitted dose curve; in most records, active means well fitted inhibition curve with a large enough effect; inconclusive means small, poorly fitted or top-dose-only effect, or another doubt; inactive means no such curve, though single readings can be large or run the other way. Potencies beside an inconclusive call are fits to weak or partial responses and may not hold up.",
  "data": [
    {"assay": "Primary qHTS for delayed death inhibitors of the malarial parasite plastid, 96 hour incubation; further: potency means the concentration at half of the fitted maximal effect; on activity change, negative = inhibition: on the % scale 0 is the no-effect control and ±100 the full control effect", "conditions": "P. falciparum luciferase reporter growth; series mostly up to 28.7 µM; activity change, negative = inhibition: at the top concentration", "summary_of_the_method": "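Readout is luminescence from an integrated firefly luciferase in P. falciparum. Red cells, 2% hematocrit and 0.05% parasitemia final, were cultured with compound through two parasite generations (96 hours) at 37 C, 5% CO2.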", "values": [
      {"compound": "Cc1ccc(C(=O)c2cc([N+](=O)[O-])ccc2N2CC(C)OC(C)C2)cc1", "note": "(centres undefined)", "Potency": "inconclusive: 13.1 µM [inhibitor, single point]"},
      {"compound": "S=C(NCc1ccncc1)NC1CCCCC1", "activity change, negative = inhibition": "inactive: 6.16%"},
      {"compound": "O=C(CCNC(=O)c1ccccc1Cl)Nc1nc2ccc(F)cc2s1", "activity change, negative = inhibition": "inactive: 142%"},
      {"compound": "COc1ccc(CC(=O)N(CCN(C)C)CC2CCCN(Cc3ccccc3F)C2)cc1", "note": "(centres undefined)", "Potency": "inconclusive: 18.5 µM [inhibitor, single point]"},
      {"compound": "CC(O)CSc1nc2c(c(=O)[nH]c(=O)n2C)n1Cc1ccccc1", "note": "(centres undefined)", "Potency": "inconclusive: 18.5 µM [inhibitor, single point]"},
      {"compound": "COCCNC(=S)N=Nc1c(O)[nH]c2c(C)cc(C)cc12", "Potency": "inconclusive: 11.7 µM [inhibitor, single point]"},
      {"compound": "Cc1c(CN2CCc3c([nH]c4ccccc34)C2C2CCCCC2)cnn1C", "note": "(centres undefined)", "Potency": "active: 5.86 µM"},
      {"compound": "COc1ccc(-n2nc(C(=O)NCC(=O)N3CCN(c4ccccc4)CC3)c3ccccc3c2=O)c(OC)c1", "activity change, negative = inhibition": "inactive: -16.3%"},
      {"compound": "Cc1ccc(C)c(NC(=S)c2nc3ccccc3s2)c1", "activity change, negative = inhibition": "inactive: 7.88%"},
      {"compound": "O=C(CSCc1ccc(Br)cc1)Nc1ccc(S(=O)(=O)N2CCOCC2)cc1", "Potency": "inconclusive: 11.7 µM [inhibitor, partial curve]"},
      {"compound": "CCc1noc(C)c1C(=O)Nc1nc(-c2cc(OC)ccc2OC)cs1", "Potency": "inconclusive: 10.4 µM [inhibitor, partial curve, poor fit]"},
      {"compound": "Cc1nn(-c2ccccc2)c(C)c1/C=N\\N1CCN(c2ccc(Cl)cc2)CC1", "Potency": "inconclusive: 8.28 µM [inhibitor, partial curve]"},
      {"compound": "COc1ccc(Cl)cc1C(=O)Nn1cnnc1", "Potency": "inconclusive: 3.7 µM [inhibitor, single point]"},
      {"compound": "Cc1cccc(NC(=S)NC(C)(C)CC(C)(C)C)c1", "Potency": "inconclusive: 18.5 µM [inhibitor, single point]"},
      {"compound": "COc1ccccc1C/C(N)=N/OC(=O)c1cccc([N+](=O)[O-])c1", "Potency": "inconclusive: 10.4 µM [inhibitor, single point]"},
      {"compound": "CCCCc1nc2c(C)c(N)cnc2n1Cc1cccc([N+](=O)[O-])c1", "Potency": "inconclusive: 11.7 µM [inhibitor, partial curve, poor fit]"},
      {"compound": "CN1CCN(CC#CCn2c3ccccc3c3ccccc32)CC1", "activity change, negative = inhibition": "inactive: 217%"},
      {"compound": "Cc1c(OCC(=O)NCC2CCC(C(=O)O)CC2)ccc2c(-c3ccccc3)cc(=O)oc12", "note": "(centres undefined)", "Potency": "inconclusive: 10.4 µM [inhibitor, single point]"},
      {"compound": "CC(C)(C)c1cc(N2CCOCC2)n2ncc(-c3ccc(Cl)cc3)c2n1", "Potency": "inconclusive: 5.86 µM [inhibitor, partial curve, poor fit]"}
    ]}
  ]
}
